Results taken from the supplement of paper PMC10849652.
This is one part of the list. Residues, ends and D or L forms follow the SMILES beside them. *: point of attachment. Cbz = O=C(OCc1ccccc1)*

Amino acid sequences for entries named in this document (tags omitted). A change or cut given only in a name is not applied to a line headed by its entry.
UniProt Q9GZU0: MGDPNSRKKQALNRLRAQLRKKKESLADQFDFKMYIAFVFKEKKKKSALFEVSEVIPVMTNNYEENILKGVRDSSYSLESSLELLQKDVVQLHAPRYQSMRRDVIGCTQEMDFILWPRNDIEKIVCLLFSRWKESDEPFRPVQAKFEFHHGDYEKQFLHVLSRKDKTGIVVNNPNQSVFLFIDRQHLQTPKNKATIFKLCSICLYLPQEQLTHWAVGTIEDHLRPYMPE
UniProt Q9Y297: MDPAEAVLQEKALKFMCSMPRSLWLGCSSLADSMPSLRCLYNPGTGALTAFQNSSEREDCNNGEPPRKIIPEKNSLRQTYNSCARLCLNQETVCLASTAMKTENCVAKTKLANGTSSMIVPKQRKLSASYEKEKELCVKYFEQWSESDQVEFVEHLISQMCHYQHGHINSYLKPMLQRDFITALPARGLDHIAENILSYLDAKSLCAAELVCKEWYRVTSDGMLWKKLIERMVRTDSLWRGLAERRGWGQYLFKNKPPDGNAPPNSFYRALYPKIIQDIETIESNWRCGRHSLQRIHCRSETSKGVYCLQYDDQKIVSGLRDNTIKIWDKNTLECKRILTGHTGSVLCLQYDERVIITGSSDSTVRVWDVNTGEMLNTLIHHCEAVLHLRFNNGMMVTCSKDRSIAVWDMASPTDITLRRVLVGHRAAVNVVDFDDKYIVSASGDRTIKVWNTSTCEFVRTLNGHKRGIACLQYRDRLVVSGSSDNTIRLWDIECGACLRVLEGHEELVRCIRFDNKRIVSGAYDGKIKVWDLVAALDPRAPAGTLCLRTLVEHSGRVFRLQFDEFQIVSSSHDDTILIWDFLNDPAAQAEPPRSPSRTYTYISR
UniProt Q6UX52: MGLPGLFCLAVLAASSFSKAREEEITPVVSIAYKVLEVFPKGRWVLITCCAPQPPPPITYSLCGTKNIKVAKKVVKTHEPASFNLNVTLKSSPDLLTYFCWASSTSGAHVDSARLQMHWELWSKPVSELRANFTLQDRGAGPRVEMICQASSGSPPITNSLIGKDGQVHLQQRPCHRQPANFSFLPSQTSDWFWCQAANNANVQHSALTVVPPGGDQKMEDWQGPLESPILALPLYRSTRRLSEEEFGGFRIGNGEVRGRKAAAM
UniProt Q9Y2V0: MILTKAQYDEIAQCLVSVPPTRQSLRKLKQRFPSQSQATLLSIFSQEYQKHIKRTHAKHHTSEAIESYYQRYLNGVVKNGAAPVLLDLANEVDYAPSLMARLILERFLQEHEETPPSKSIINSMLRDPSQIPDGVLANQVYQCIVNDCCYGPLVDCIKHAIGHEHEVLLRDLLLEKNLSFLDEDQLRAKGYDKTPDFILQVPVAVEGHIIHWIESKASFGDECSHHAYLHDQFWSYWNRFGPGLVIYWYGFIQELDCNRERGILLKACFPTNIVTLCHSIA
UniProt Q96NL8: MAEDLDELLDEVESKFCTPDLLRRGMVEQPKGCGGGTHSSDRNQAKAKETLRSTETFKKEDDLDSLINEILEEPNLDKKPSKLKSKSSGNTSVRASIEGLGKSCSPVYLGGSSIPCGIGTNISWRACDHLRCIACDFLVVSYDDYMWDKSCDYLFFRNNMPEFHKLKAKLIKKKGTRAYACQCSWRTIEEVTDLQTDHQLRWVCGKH
UniProt Q96N11, whole entry, looked up: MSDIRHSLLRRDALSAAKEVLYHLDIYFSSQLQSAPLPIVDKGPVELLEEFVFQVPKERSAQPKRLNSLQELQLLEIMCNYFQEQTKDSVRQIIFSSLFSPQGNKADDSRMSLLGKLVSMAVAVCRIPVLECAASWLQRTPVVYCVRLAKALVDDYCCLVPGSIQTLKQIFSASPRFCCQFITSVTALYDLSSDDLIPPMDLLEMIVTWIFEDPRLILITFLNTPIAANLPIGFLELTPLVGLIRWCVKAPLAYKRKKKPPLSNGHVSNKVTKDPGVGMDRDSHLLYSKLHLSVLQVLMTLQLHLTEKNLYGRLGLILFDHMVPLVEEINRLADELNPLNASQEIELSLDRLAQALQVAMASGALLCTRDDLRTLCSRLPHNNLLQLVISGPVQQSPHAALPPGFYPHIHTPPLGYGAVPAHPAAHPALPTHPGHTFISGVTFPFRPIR
UniProt Q96MD7: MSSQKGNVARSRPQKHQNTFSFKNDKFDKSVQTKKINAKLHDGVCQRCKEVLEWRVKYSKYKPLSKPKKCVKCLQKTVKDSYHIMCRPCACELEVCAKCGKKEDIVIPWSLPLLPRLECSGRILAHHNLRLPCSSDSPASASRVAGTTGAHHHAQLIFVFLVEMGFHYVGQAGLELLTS
UniProt Q9NSG2: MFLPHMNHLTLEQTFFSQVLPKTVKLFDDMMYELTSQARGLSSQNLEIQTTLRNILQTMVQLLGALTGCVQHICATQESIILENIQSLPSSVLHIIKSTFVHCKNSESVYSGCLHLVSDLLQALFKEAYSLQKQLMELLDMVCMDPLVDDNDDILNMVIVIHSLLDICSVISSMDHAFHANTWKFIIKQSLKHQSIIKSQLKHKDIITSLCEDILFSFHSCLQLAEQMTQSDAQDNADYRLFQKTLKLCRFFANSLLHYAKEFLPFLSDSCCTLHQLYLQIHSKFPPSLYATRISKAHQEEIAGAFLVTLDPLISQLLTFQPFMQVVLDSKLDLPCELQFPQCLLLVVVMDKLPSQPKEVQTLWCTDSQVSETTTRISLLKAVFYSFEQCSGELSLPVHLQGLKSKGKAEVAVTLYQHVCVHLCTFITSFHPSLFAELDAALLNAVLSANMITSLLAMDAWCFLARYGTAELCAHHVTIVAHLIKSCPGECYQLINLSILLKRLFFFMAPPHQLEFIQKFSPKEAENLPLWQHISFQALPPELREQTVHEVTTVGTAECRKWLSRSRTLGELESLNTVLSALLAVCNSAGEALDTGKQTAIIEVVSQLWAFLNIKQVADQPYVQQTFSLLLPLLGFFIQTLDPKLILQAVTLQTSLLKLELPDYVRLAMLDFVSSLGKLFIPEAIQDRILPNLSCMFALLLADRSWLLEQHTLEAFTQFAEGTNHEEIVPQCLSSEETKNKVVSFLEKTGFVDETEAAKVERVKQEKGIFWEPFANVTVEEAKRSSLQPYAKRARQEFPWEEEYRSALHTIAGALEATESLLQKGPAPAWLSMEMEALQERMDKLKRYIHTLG
UniProt Q14012: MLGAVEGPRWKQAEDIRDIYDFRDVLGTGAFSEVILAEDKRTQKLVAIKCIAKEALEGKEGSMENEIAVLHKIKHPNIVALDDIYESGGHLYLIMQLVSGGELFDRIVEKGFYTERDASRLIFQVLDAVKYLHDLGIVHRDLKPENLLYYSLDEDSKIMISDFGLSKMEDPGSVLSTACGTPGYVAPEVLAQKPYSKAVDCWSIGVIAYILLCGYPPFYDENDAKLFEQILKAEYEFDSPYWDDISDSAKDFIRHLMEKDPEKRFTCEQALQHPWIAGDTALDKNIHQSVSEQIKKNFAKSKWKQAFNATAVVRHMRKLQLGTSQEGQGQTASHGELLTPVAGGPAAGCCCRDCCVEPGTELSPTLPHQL
UniProt P27482, whole entry, looked up: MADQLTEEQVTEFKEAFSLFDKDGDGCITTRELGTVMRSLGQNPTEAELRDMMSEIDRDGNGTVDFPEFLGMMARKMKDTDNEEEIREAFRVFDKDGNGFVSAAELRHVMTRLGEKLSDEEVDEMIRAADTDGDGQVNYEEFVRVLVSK
UniProt Q9NSK7: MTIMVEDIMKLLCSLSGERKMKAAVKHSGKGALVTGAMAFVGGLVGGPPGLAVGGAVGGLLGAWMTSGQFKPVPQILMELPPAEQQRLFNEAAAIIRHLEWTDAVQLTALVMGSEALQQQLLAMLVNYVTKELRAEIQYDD
UniProt Q16581: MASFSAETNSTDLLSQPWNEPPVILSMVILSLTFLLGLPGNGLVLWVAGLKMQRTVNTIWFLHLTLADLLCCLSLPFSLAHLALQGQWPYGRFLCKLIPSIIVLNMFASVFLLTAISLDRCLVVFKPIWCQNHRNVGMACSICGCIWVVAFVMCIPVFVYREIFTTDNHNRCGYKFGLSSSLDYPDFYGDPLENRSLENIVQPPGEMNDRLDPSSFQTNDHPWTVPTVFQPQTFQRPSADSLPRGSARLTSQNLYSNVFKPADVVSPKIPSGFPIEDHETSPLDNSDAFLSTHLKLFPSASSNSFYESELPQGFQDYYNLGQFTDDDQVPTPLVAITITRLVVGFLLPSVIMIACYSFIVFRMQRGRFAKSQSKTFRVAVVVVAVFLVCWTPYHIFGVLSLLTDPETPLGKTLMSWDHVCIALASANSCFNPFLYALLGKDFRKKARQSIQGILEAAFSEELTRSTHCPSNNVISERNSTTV
UniProt Q7Z6I8: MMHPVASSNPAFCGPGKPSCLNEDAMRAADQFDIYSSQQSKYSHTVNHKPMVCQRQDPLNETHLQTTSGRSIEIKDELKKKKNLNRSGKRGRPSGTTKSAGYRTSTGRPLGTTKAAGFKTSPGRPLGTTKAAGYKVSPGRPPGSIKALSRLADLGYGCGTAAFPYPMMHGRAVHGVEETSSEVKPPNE
UniProt Q96L46: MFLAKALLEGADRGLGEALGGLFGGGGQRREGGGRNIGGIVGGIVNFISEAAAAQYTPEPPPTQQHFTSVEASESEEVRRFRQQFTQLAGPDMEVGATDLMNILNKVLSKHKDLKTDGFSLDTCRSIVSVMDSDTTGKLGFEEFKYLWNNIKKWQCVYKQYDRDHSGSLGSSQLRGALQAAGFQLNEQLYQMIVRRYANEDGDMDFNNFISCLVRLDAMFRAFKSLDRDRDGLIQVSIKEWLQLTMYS

Columns and labels:
Assay in all cases: log2 fold change, soluble protein after heating vs DMSO (PISA); higher = thermal stabilisation; K562 cells, 10 uM, 30 min; active = over 0.2 and 3.5 SD of the protein, either way, in both replicates (recomputed)
erlotinib = compound: C#Cc1cccc(Nc2ncnc3cc(OCCOC)c(OCCOC)cc23)c1 [erlotinib]
Method in brief: (§1)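 K562 cells (2×10^6 cells/mL) were treated with 10 μM compound for 30 min, and aliquots were heated for 3 min over 48°C-58°C. Pooled aliquots were extracted in PBS with 0.5% NP-40 at 4°C, and the supernatant after 21,000xg for 90 min was measured by TMTpro 16plex LC-MS/MS with channel sums equalised. Reported thermal stability, relative to control samples and from duplicates, is a log2 fold change.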

[1] = compound: C/C(=N\NC(=O)C1=CC(=CC=C1)S(=O)(=O)N2CCOCC2)/C3=C(C=CC(=C3)Cl)O
Method in brief: as §1

[2] = compound: C1=CC(=CC=C1C2=NC3=C(N2)C=C(C=C3)C(=O)N)OC4=CC=C(C=C4)Cl
Method in brief: as §1

[3] = compound: C1=CC2=C(C=CC(=C2)/C=C\3/C(=O)NC(=NCC4=CC=CS4)S3)N=C1
Method in brief: as §1

[4] = compound: C1=CC2=NC=CN=C2C=C1/C=C/3\C(=O)NC(=O)S3
Method in brief: as §1

[5] = compound: C1=CC=C2C(=C1)C3=NNC4=CC=CC(=C43)C2=O
Method in brief: as §1

[6] = compound: C1CCN(C1)C(=O)NC2=CC=CC(=C2)NC3=NC=C(C(=N3)NCCC4=CN=CN4)Br
Method in brief: as §1

[7] = compound: C1CN(CCC1(CC2=CC=C(C=C2)Cl)N)C3=NC=NC4=C3C=CN4
Method in brief: as §1

ibrutinib = compound: C=CC(=O)N1CCC[C@@H](n2nc(-c3ccc(Oc4ccccc4)cc3)c3c(N)ncnc32)C1 [ibrutinib]
Method in brief: as §1

[8] = compound: CC(=O)c1cnc2ccc(-c3cc(Cl)c(O)c(Cl)c3)nc2c1N[C@H]1CC[C@H](CN(C)C)CC1
Method in brief: as §1

[9] = compound: CC(C)C1=C2N=C(C=C(N2N=C1)NCC3=CC=CC=C3)NCCCCCCN
Method in brief: as §1

[10] = compound: CC1=C(C(CC(=O)N1)C2=CC=C(C=C2)C(F)(F)F)C(=O)NC3=C(C=C4C(=C3)C=NN4)F
Method in brief: as §1

[11] = compound: CC1=C(C2=C(C=C1)C(=O)C3=CC=CC=C3N2CCCN)C
Method in brief: as §1

IRAK-1-4 Inhibitor I = compound: C1COCCN1CCN2C3=CC=CC=C3N=C2NC(=O)C4=CC(=CC=C4)[N+](=O)[O-] [IRAK-1-4 Inhibitor I]
Method in brief: as §1

pinometostat = compound: CC(C)N(C[C@H]1O[C@@H](n2cnc3c(N)ncnc32)[C@H](O)[C@@H]1O)[C@H]1C[C@@H](CCc2nc3cc(C(C)(C)C)ccc3[nH]2)C1 [pinometostat]
Method in brief: as §1

[12] = compound: C1=CC(=C(C=C1Cl)C2=NC3=NC=CN=C3C(=N2)NC4=CC=NC=C4)F
Method in brief: as §1

[13] = compound: CC(C)(O)CC(=O)NCCn1ccc2ncnc(Nc3ccc(Oc4cccc(C(F)(F)F)c4)c(Cl)c3)c21
Method in brief: as §1

[14] = compound: C1=CC=C(C=C1)C2=NC(=C(N2)C3=CC=NC=C3)C4=CC(=C(C=C4)Cl)O
Method in brief: as §1

ralimetinib = compound: CC(C)(C)Cn1c(N)nc2ccc(-c3[nH]c(C(C)(C)C)nc3-c3ccc(F)cc3)nc21 [ralimetinib]
Method in brief: as §1

[15] = compound: CC(C)C[C@@H](C=O)NC(=O)[C@H](CC(C)C)NC(=O)[C@H](CC(C)C)NC(=O)OCc1ccccc1
Method in brief: as §1

Measured: log2 fold change

CA2 (UniProt P00918)
inactive: erlotinib 0.058 | [1] 0.112 | [2] 0.025 | [3] 0.055 | [4] -0.025 | [5] -0.131 | [6] -0.024 | [7] 0.021 | ibrutinib -0.151 | [8] -0.04 | [9] 0.175 | [10] -0.109 | [11] 0.027

CAPN1 (UniProt E9PLX0)
inactive: erlotinib 0.115 | [2] 0.005 | [4] -0.069 | IRAK-1-4 Inhibitor I 0.126 | ibrutinib 0.071 | [9] 0.068 | pinometostat -0.081

C6orf62 (UniProt Q9GZU0)
inactive: erlotinib 0.097 | [12] -0.057 | [2] 0.053 | [13] 0.146 | [9] 0.008

BTRC (UniProt Q9Y297)
inactive: erlotinib -0.022 | [1] -0.036 | [12] -0.06 | [2] 0.153 | [3] 0.042 | [4] -0.156 | [5] -0.081 | [6] 0.008 | [7] 0.122 | IRAK-1-4 Inhibitor I -0.026 | ibrutinib 0.157 | [8] -0.064 | [13] -0.216 | [9] -0.137 | pinometostat 0.086 | [10] 0.041 | [11] -0.103

C17orf99 (UniProt Q6UX52)
inactive: erlotinib -0.114 | [1] -0.565 | [12] 0.12 | [2] -0.336 | [3] -0.025 | [5] -0.007 | [8] -0.086 | [13] -0.001 | [9] 0.046

C15orf41 (UniProt Q9Y2V0)
inactive: erlotinib 0.02 | [1] 0.017 | [12] 0.002 | [2] -0.033 | [3] -0.018 | [14] 0.001 | [5] -0.098 | [6] 0.115 | [7] 0.075 | IRAK-1-4 Inhibitor I 0.105 | [8] 0.062 | ralimetinib 0.004 | [13] -0.103 | [9] -0.17 | [15] 0.11 | pinometostat 0.027 | [11] -0.117

C8orf37 (UniProt Q96NL8)
inactive: erlotinib 0.008 | [12] 0.268 | [2] -0.091 | [6] -0.008 | [7] -0.043 | [13] 0.11 | [9] -0.021 | [11] 0.029

2 successive entries out of the list so far:
C17orf99 (UniProt Q6UX52)
inactive: erlotinib -0.114 | [1] -0.565 | [12] 0.12 | [2] -0.336 | [3] -0.025 | [5] -0.007 | [8] -0.086 | [13] -0.001 | [9] 0.046

C15orf41 (UniProt Q9Y2V0)
inactive: erlotinib 0.02 | [1] 0.017 | [12] 0.002 | [2] -0.033 | [3] -0.018 | [14] 0.001 | [5] -0.098 | [6] 0.115 | [7] 0.075 | IRAK-1-4 Inhibitor I 0.105 | [8] 0.062 | ralimetinib 0.004 | [13] -0.103 | [9] -0.17 | [15] 0.11 | pinometostat 0.027 | [11] -0.117

(next part)

C7orf26 (UniProt Q96N11)
inactive: erlotinib -0.123 | [12] 0.04 | [2] 0.267 | [4] 0.337 | [14] 0.138 | IRAK-1-4 Inhibitor I 0.031 | ibrutinib 0.266 | ralimetinib -0.163 | [13] -0.151 | [9] -0.071 | [15] -0.03 | pinometostat 0.019 | [10] 0.13

C9orf85 isoform 1 (UniProt Q96MD7)
inactive: erlotinib 0.006 | [1] -0.062 | [12] 0.081 | [2] 0.01 | [3] 0.362 | [5] -0.141 | [6] -0.035 | [7] 0.014 | IRAK-1-4 Inhibitor I -0.073 | [8] -0.089 | [13] -0.113 | [9] 0.163 | pinometostat 0.194 | [10] 0.134 | [11] 0.037

C1orf112 (UniProt Q9NSG2)
inactive: [1] -0.14 | [3] 0.106 | [5] 0.005 | [6] -0.005 | [7] 0.164 | [8] 0.005 | [11] 0.04

CAMK1 (UniProt Q14012)
inactive: [4] 0.125 | [14] -0.165 | ibrutinib -0.016 | ralimetinib 0.024 | [15] -0.123

CALML3 (UniProt P27482)
inactive: [1] 0.282 | [12] 0.184 | [3] 0.218 | [5] -0.288 | [6] -0.431 | [7] -0.248 | [8] -0.557 | [13] 0.206 | [11] 0.775

C19orf12 (UniProt Q9NSK7)
inactive: [1] 0.242 | [12] -0.098 | [3] 0 | [4] 0.089 | [5] -0.028 | [6] -0.032 | [7] -0.052 | ibrutinib 0.002 | [8] 0.096 | [13] -0.032 | [10] 0.08 | [11] 0.021

CALM1 (UniProt G3V361)
inactive: erlotinib 0.024 | [2] -0.107 | [9] 0.083

C3AR1 (UniProt Q16581)
inactive: [4] -0.471 | ibrutinib -0.476 | [10] 0.121

C5orf24 (UniProt Q7Z6I8)
inactive: [12] -0.605 | [6] -0.187 | [7] 0.228 | [13] 0.155 | [10] 0.174 | [11] -0.099

CAPNS2 (UniProt Q96L46)
inactive: [14] -0.009 | IRAK-1-4 Inhibitor I -0.041 | ralimetinib -0.005 | [15] -0.049 | pinometostat 0.274
